Experimental findings from PMC12118576, “Selective Glycopolymer Inhibitors of Galectin-3: Supportive Anti-Cancer Agents Protecting Monocytes and Preserving Interferon-Gamma Function” (International Journal of Nanomedicine, 2025) are described below.

Chains of the proteins cited; added tags and fusions are not shown.
UniProt P17931: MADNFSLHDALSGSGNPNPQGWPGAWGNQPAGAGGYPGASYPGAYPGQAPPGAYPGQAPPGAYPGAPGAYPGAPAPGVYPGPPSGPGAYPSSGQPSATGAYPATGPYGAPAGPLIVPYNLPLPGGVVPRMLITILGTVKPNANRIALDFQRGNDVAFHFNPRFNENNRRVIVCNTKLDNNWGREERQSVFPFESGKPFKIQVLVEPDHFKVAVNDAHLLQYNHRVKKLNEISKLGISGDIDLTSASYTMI

These are yes or no findings as the source states them, for the method shown. Some entries that bind do so weakly or less than the wild type.

The target of this assay is T1, asialofetuin (UniProt P12763).
T1 sequence: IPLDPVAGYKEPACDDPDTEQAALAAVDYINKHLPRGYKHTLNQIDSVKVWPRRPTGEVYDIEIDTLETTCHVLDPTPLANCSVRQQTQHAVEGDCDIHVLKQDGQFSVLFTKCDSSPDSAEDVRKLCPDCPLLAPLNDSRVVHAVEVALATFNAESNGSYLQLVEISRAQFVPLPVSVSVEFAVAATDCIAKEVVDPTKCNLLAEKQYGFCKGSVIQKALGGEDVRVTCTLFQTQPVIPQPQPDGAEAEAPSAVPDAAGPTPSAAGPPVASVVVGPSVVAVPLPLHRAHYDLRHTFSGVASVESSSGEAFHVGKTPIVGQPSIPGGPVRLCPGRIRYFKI
The experiment in a line: ELISA; competitive ELISA-type assay; ASF coated on the plate (0.1 µM in PBS, pH 7.5); Gal-1 or Gal-3 1.25 µM in EPBS (2 mM EDTA in PBS) with serial dilutions of glycopolymers or oligosaccharides, 2 h; bound galectin detected with anti-His-HRP; both purified. (In general: In an ELISA, binding on a coated surface is turned into a signal by an enzyme label.)

For “recombinant human galectin-3 (His-tagged) (from UniProt P17931 1-250)”, the binding result was “binds”.
